From PMC8560763, “Roles of metal ions in the selective inhibition of oncogenic variants of isocitrate dehydrogenase 1” (Communications Biology, 2021)

Experiment: ITC, MgCl2 binding to 2OG
Settings: MgCl2 (5 mM), 2OG (500 µM), 50 mM Tris-HCl, pH 7.5

[Cl-].[Cl-].[Mg+2] [MgCl2]
binding to 2OG: No binding is detected | binding to 2OG (listed as Mg^2+): no binding was observed
